# Results as given in PubChem BioAssay AID504834 (National Center for Advancing Translational Sciences (NCATS), 2011).
# Values joined by “and” are separate entries in the source; they are usually repeats but may differ in a detail not shown here. Identical values can stand only once. The whole screen tested about 320,000 compounds, of which about 22,000 (6.9%) were called active. The shares of active, inactive and inconclusive entries below differ from those in the screen. Calls come from the whole dose curve; as a rule, active = well fitted inhibition curve with a large enough effect; inconclusive = small, poorly fitted or top-dose-only effect, or another doubt; inactive = no such curve, though single readings can be large or run the other way. Potencies beside an inconclusive call are fits to weak or partial responses and may not hold up.
# Test: Primary qHTS for delayed death inhibitors of the malarial parasite plastid, 96 hour incubation
# Conditions: P. falciparum luciferase reporter growth; series mostly up to 28.7 µM
# Summary of the method: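 P. falciparum expressing integrated firefly luciferase grown in erythrocytes (2% hematocrit, 0.05% parasitemia final) with compounds for 96 hours at 37 C, 5% CO2. Growth inhibition read as loss of luminescence after adding luciferase detection reagent.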
# Potency is the fitted concentration of half-maximal effect.
row,Structure (SMILES),Potency
1,Cc1cc(Br)cc2c(C(=O)Nc3c(C)n(C)n(-c4ccccc4)c3=O)cc(-c3cccs3)nc12,"inconclusive: 8.28 µM [inhibitor, partial curve]"
2,CCOc1ccc(NC(=O)CN2CCN(CC(=O)Nc3ccc(F)c(F)c3)CC2)cc1,"inconclusive: 9.28 µM [inhibitor, single point]"
3,COc1ccc(C2=Nc3ccccc3OC2)cc1,inactive
4,COc1cc(C2NC(=O)NC(O)(C(F)(F)F)C2C(=O)c2ccc(Cl)cc2)ccc1O (stereo not given),inactive
5,CCc1ccc(OC(C)C(=O)Nc2ccc(S(=O)(=O)Nc3nccs3)cc2)cc1 (stereo not given),"inconclusive: 5.22 µM [inhibitor, partial curve, poor fit]"
6,CCN(c1ccccc1)S(=O)(=O)c1ccc(C(=O)Nc2nnc(-c3ccco3)o2)cc1,"inconclusive: 18.5 µM [inhibitor, single point]"
7,COCCNC(=O)/C(C#N)=C/c1cc(C)n(-c2ccc(C)cc2)c1C,inactive
8,O=C(CCS(=O)(=O)c1cc2c(cc1Cl)NC(=O)CO2)NCc1ccc(F)cc1,"inconclusive: 0.928 µM [inhibitor, full curve]"
9,COc1cc(NC(=O)c2ccccc2Cl)c(OC)cc1NC(=O)CN1CCCCC1,active: 1.85 µM
10,CCCCc1cc(C)c(S(=O)(=O)c2ccccc2C)c(=O)[nH]1,inactive
11,Cc1ccc(S(=O)(=O)c2c(N)n(NC(=O)c3ccccc3C)c3nc4ccccc4nc23)cc1,"inconclusive: 20.8 µM [inhibitor, partial curve, poor fit]"
12,CN1/C(=C\C=N\NC(=O)c2cccnc2)C(C)(C)c2ccccc21,"inconclusive: 1.47 µM [inhibitor, full curve, poor fit]"
13,CCN(CC)C(CNC(=O)CSc1nnnn1-c1ccc(C)c(C)c1)c1ccco1 (stereo not given),"inconclusive: 18.5 µM [inhibitor, single point]"
14,O=c1cc(CNCCCO)c2ccccc2[nH]1,active: 3.7 µM
15,Cc1ccc(S(=O)(=O)N2CCOCC2)cc1C(=O)Nc1cccc(S(=O)(=O)N2CCCC2)c1,"inconclusive: 13.1 µM [inhibitor, single point]"
16,COc1ccc(C)cc1NC(=O)c1nn(C)cc1Br,inactive
17,O=C(NCC(=O)N(c1ccc(F)cc1)C(C(=O)NC1CCCC1)c1cccnc1)c1ccco1 (stereo not given),"inconclusive: 11.7 µM [inhibitor, partial curve]"
18,CCN1C(=O)/C(=C2/Sc3ccccc3N2CCCS(=O)(=O)O)SC1=S,"inactive and inconclusive: 4.15 µM [inhibitor, partial curve]"
19,CCOC(=O)C1CCCN(CCC(=O)Nc2cc(OC)ccc2OC)C1 (stereo not given),"inconclusive: 2.33 µM [inhibitor, single point]"
20,Cc1ccc(NC(=O)CS(=O)CC(=O)Nc2cccc(C)c2C)cc1F (stereo not given),"inconclusive: 13.1 µM [inhibitor, single point]"
21,COc1ccc(N2CCN(CC(O)COC(c3ccc(F)cc3)c3ccc(F)cc3)CC2)cc1 (stereo not given),active: 14.7 µM
22,COc1ccc(CCN2C(=O)C(Oc3ccccc3C)C2c2ccc3c(c2)OCO3)cc1OC (stereo not given),inactive
23,O=c1[nH]c(C2CCCN(S(=O)(=O)c3cccc(F)c3)C2)nc2c1nnn2Cc1ccccc1 (stereo not given),"inconclusive: 10.4 µM [inhibitor, single point]"

row,Structure (SMILES),Potency
1,CC1CCN(C(=O)COC(=O)c2ccccc2NC(=O)c2ccco2)CC1,inactive
2,COc1ccc(-c2cc(C(=O)Nc3ccc(O)cc3)c3ccccc3n2)cc1OC,"inconclusive: 2.33 µM [inhibitor, full curve]"
3,CC(=O)NCCc1nc2ccccc2n1CCOc1cccc(C)c1,"inconclusive: 9.28 µM [inhibitor, partial curve]"
4,O=C(c1ccccc1)n1ccc(-c2cnc(-c3ccccc3)s2)n1,inactive
5,CC(NCc1ccc([N+](=O)[O-])cc1)C1COc2ccccc2O1 (stereo not given),inactive
6,Cc1cccc(NC(=O)NC(C)C(c2cccs2)N2CCOCC2)c1 (stereo not given),"inconclusive: 0.0738 µM [inhibitor, full curve, poor fit]"
7,CC1CCN(C(=O)c2ccc3c(c2)NC(=O)/C(=C/c2ccccc2)S3)CC1,"inconclusive: 8.28 µM [inhibitor, single point]"
8,CCCn1c(SCC(=O)NC2CCCCC2)nnc1-c1ccncc1,"inconclusive: 18.5 µM [inhibitor, single point]"
9,CCOC(=O)c1cc(-c2ccccc2C)nn1Cc1cc(CC)no1,"inconclusive: 18.5 µM [inhibitor, single point]"
10,O=C(N/N=C/c1c(Cl)nc2ccccn2c1=O)c1cccnc1,inactive
11,COc1cccc(OC)c1C(=O)Nc1nc2ccc(S(C)(=O)=O)cc2s1,inactive
12,CNC(C(=O)c1ccccc1)C(OC(C)=O)c1cccc([N+](=O)[O-])c1 (stereo not given),active: 2.94 µM
13,O=C(c1ccc(C(F)(F)F)cc1)N1CCC(=O)N(C(COCc2ccc(Cl)cc2)Cc2ccccc2)CC1 (stereo not given),"inconclusive: 11.7 µM [inhibitor, single point]"
14,CCc1nc2ccccc2c(=O)n1NCCc1ccccc1,inactive
15,COc1cccc(C(=O)N2CCN(Cc3ccccc3Br)CC2)c1,"inconclusive: 2.62 µM [inhibitor, single point]"
16,CN(C)C(=O)c1cc(-c2ccccc2)no1,inactive
17,NNC(=O)c1ccc(COc2cccc3ccccc23)o1,inactive
18,CN(/N=C/c1c[nH]c2ccccc12)c1cnn(-c2ccc(F)c(Cl)c2)c(=O)c1Cl,inactive
19,O=C(CCn1c(=O)oc2ccccc21)N1CCN(c2ccccc2F)CC1,"inconclusive: 5.22 µM [inhibitor, partial curve]"
20,CC(NS(=O)(=O)c1ccccc1)C(c1cccs1)N1CCN(C)CC1 (stereo not given),"inconclusive: 18.5 µM [inhibitor, single point]"
21,N#Cc1ccccc1OCCCNC1CCCC1,"inconclusive: 14.7 µM [inhibitor, partial curve, poor fit]"
22,O=C(CSc1nncn1-c1ccccc1)Nc1ccccc1,"inconclusive: 18.5 µM [inhibitor, single point]"
